Assay results published in article doi:10.1101/2024.03.11.584206.

Target: T1, PLPPR3 pS351 phospho-peptide (LKRApSVDVDLLA)
T1 sequence (peptide, phosphoserine at S351 (fifth residue of the peptide, printed pS)): LKRASVDVDLLA
Assay: affinity purification with mass spectrometry

binding: binds
B1: brain acid soluble protein 1 (BASP1), endogenous in adult mouse brain lysate (protein, UniProt Q91XV3 1-226)
chain: MGGKLSKKKKGYNVNDEKAKDKDKKAEGAGTEEEGTPKESEPQAAADATEVKESTEEKPKDAADGEAKAEEKEADKAAAAKEEAPKAEPEKSEGAAEEQPEPAPAPEQEAAAPGPAAGGEAPKAGEASAESTGAADGAAPEEGEAKKTEAPAAAGPEAKSDAAPAASDSKPSSAEPAPSSKETPAASEAPSSAAKAPAPAAPAAAEPQAEAPAAAASSEQSVAVKE

These are yes or no findings as the source states them, for the method shown. In cells and extracts the contact can be indirect. These calls come from enrichment with a bait or labelling near it, and not all partners need be listed.
